PubChem BioAssay AID1224826, NIAID | 2016
Shown is one part, drawn at random, of about 17,000 reagents. In the full data, about 1,110 (6.6%) got an active call. 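Active means lowered or raised reporter signal; replicate intensities are raw and not normalised per plate.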 A reagent listed more than once was tested more than once; the source does not tell the runs apart. No sequences are given here.

Test: 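Genes that change LPS-induced Tnf promoter activity in mouse macrophages when knocked down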 (primary screen)
Cells: RAW264.7 G9 macrophages from mouse bearing reporters for p65 (GFP) and the Tnf promoter (mCherry)
Knock-down reagent: siRNA pool against mouse genes, 100 nM
Duration: 16 h of LPS stimulation, after 2 days of siRNA transfection
Conditions: bacterial lipopolysaccharide (Salmonella minnesota R595), 10 ng/ml
Measured: 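Nuclear mCherry signal of the Tnf promoter reporter measured by imaging after background removal, scaled to each plate median and turned into robust z-scores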
Reading the numbers: Tnf reporter robust z-score: higher = stronger Tnf promoter reporter signal after LPS; Tnf reporter intensity: higher = stronger Tnf promoter reporter signal
Active means: 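Called active when robust z-score is at most -1.3, matching the median of the Tlr4 knock-down control, or over 3; control wells and wells with under 50 cells never active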
Calls: active = Tnf reporter clearly lowered or raised; inactive = no clear change in Tnf reporter

target,Tnf reporter robust z-score,fewer than 50 cells in well,"Tnf reporter intensity, replicate 1","Tnf reporter intensity, replicate 2",outcome
Ndufs8,0.11,enough cells in well,301,189,inactive
Commd9,1.01,enough cells in well,270,213,inactive
Farsa,-1.35,enough cells in well,135,115,active
Crisp3,1.98,enough cells in well,343,258,inactive
Sgk1,1.18,enough cells in well,312,189,inactive
Slx1b,0.3,enough cells in well,250,78.1,inactive
Gdf15,0.44,enough cells in well,259,303,inactive
Npr1,2.19,enough cells in well,350,272,inactive
Npr1,3.57,enough cells in well,400,251,active
Keap1,,fewer than 50 cells per well; well left out of calls,92.8,87.5,inactive
Rnf113a2,,fewer than 50 cells per well; well left out of calls,127,54.1,inactive
Cdc14b,-0.58,enough cells in well,180,184,inactive
Ncf1,-0.18,enough cells in well,250,191,inactive
Mrpl24,-0.22,enough cells in well,213,96.4,inactive
Cldn1,-0.95,enough cells in well,155,153,inactive
Hs6st2,0.4,enough cells in well,322,157,inactive
Ftl2-ps,1.79,enough cells in well,523,136,inactive
Vmn1r32,-1.16,enough cells in well,63.7,61.2,inactive
Or4c114,0.91,enough cells in well,211,224,inactive
Gucy2e,-0.4,enough cells in well,200,111,inactive
Tpo,0.01,enough cells in well,229,233,inactive
Or8b12b,-0.29,enough cells in well,87.4,108,inactive
Adam11,-0.62,enough cells in well,131,135,inactive
Vmn1r148,1.04,enough cells in well,159,93.3,inactive
Sobp,-0.15,enough cells in well,166,59.4,inactive
Dph2,-1.02,enough cells in well,104,87.8,inactive
Dguok,,fewer than 50 cells per well; well left out of calls,125,80.3,inactive
Ssbp4,-0.94,enough cells in well,60.1,61.7,inactive
Zfp451,-0.94,enough cells in well,78.7,92.2,inactive
Hoxa13,-0.02,enough cells in well,249,176,inactive
Aadacl2fm1,-0.3,enough cells in well,129,101,inactive
Pacsin1,0.73,enough cells in well,225,219,inactive
Prepl,-0.2,enough cells in well,178,158,inactive
Or4d11,2.27,enough cells in well,316,215,inactive
Rnf130,-1.08,enough cells in well,94.7,68.2,inactive
C130026L21Rik,-0.52,enough cells in well,84.7,146,inactive
Fbxw9,0.76,enough cells in well,227,227,inactive
Spata18,2.09,enough cells in well,357,146,inactive
Sh3bgr,,fewer than 50 cells per well; well left out of calls,49.7,51.5,inactive
Cdk15,2.55,enough cells in well,367,297,inactive
Spatc1l,-0.46,enough cells in well,207,59.6,inactive
Xk,-0.4,enough cells in well,169,234,inactive
Ttc33,,fewer than 50 cells per well; well left out of calls,371,121,inactive
Epc1,0.1,enough cells in well,217,260,inactive
Cpxm1,-0.79,enough cells in well,131,134,inactive
U2surp,,fewer than 50 cells per well; well left out of calls,181,38.6,inactive
Apoc3,-0.41,enough cells in well,117,178,inactive
Tbp,-0.64,enough cells in well,214,85.4,inactive
Stkld1,-0.43,enough cells in well,150,150,inactive
Foxk1,0.77,enough cells in well,302,178,inactive
Mixl1,0.76,enough cells in well,374,223,inactive
4930503L19Rik,,fewer than 50 cells per well; well left out of calls,237,39.6,inactive
Inhbc,0.46,enough cells in well,229,208,inactive
Diablo,1.18,enough cells in well,345,267,inactive
Klk1b21,1.07,enough cells in well,248,188,inactive
Ralbp1,0.26,enough cells in well,310,240,inactive
Vps35l,0.07,enough cells in well,173,204,inactive
Ush1c,-0.67,enough cells in well,163,196,inactive

In a second layout: entries from further up.
{"target": "Tpo", "Tnf reporter robust z-score": 0.01, "fewer than 50 cells in well": "enough cells in well", "Tnf reporter intensity, replicate 1": 229, "Tnf reporter intensity, replicate 2": 233, "outcome": "inactive"}
{"target": "Or8b12b", "Tnf reporter robust z-score": -0.29, "fewer than 50 cells in well": "enough cells in well", "Tnf reporter intensity, replicate 1": 87.4, "Tnf reporter intensity, replicate 2": 108, "outcome": "inactive"}
{"target": "Adam11", "Tnf reporter robust z-score": -0.62, "fewer than 50 cells in well": "enough cells in well", "Tnf reporter intensity, replicate 1": 131, "Tnf reporter intensity, replicate 2": 135, "outcome": "inactive"}
{"target": "Vmn1r148", "Tnf reporter robust z-score": 1.04, "fewer than 50 cells in well": "enough cells in well", "Tnf reporter intensity, replicate 1": 159, "Tnf reporter intensity, replicate 2": 93.3, "outcome": "inactive"}
{"target": "Sobp", "Tnf reporter robust z-score": -0.15, "fewer than 50 cells in well": "enough cells in well", "Tnf reporter intensity, replicate 1": 166, "Tnf reporter intensity, replicate 2": 59.4, "outcome": "inactive"}
{"target": "Dph2", "Tnf reporter robust z-score": -1.02, "fewer than 50 cells in well": "enough cells in well", "Tnf reporter intensity, replicate 1": 104, "Tnf reporter intensity, replicate 2": 87.8, "outcome": "inactive"}
